These results are taken from PubChem BioAssay AID1508600 (Functional Genomics Laboratory (NCATS/FGL), 2020).

About 3,700 (7%) of roughly 53,000 sequences were called active.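 Rule for the calls: active = gene knockdowns whose robust z-score for IL-1 alpha signal is at least 2 or at most -2, so actives lie on both sides; inactive = the rest.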 The list shows a part of the results.

The nature of this test: Components of the Cytosolic LPS Sensing Pathway: Gene Identification via Genome-wide siRNA Screen.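 Note: robust z of the log signal after scaling to non-targeting control siRNA wells of the plate.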 The note with it: RAW264.7 macrophages, IL-1a HTRF, actives lie on both sides, screened at 100 nM (by protocol), cells primed 5 h with Pam3CSK4 first. The method, boiled down:
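Supernatant IL-1a by HTRF from RAW264.7 cells primed with Pam3CSK4 (5 hours) and transfected with LipidA (24 hour) after 48h siRNA knockdown at 100 nM; cell viability checked with CellTiter-Glo.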
A general note: TR-FRET usually uses a lanthanide donor and a delayed reading to cut background.
As for GGGUAGUUAUACAAACUAATT against Snapc5, the z-score was inactive: 1.53.
Consider CCUGUGAGUACCAGCCAACTT against Vstm2l, for which the z-score was inactive: -0.636.
For GGAUUUAGGUAUGUUUCACTT against Ankrd55, the z-score was inactive: -1.
As to GCCAAUGAGCAGACUGUAUTT against Sycp1, the z-score is inactive: -0.193.
Consider GGAUUCGGACAAAACUACUTT against Mettl16, for which the z-score is inactive: 0.255.
For the sequence GGUACAAAGUCCAUUCUUGTT against Nlrp10, the z-score is inactive: 1.25.
Regarding GGACAGAUGGAAUAGUGAATT against Klra10, the z-score was inactive: -0.657.
For CCAAGAUCCCGUUAAACAATT against Defb3, the z-score is inactive: 0.645.
Turning to “GGAAGAGCUGAAACAUUUGTT against E230025N22Rik”, the z-score is inactive: -1.22.
As to GGAGUUCCCGCUUACUCUGTT against She, the z-score is inactive: -0.333.
On to CCUGCUAAUGUUUGUAAGUTT against Sowahc, for which the z-score was inactive: 1.37.
In the case of CGGGCUGAUUCAACUGGUGTT against Kif1b it was active: 3.64; in that of GGCAAAGGUGCAAGAUACATT against Nadsyn1, inactive: 0.409.
As to GGGUUGGCUGAGGUAAUGGTT against Gcn1, the z-score was inactive: 0.174.
On to GGUGGUGAGCAUCUACUAUTT against Alox5, for which the z-score was inactive: 0.565.
In the case of CGCUGGACUGGAAUACUCATT against Zfp1 it was inactive: -0.692; in that of GGAAAUGAACAGUAAACCATT against Golph3l, inactive: 1.19; in that of GGUAGACUGUGAAAAUGACTT against Ldlr, inactive: -0.6.
To GGUGAAGUCAUCACUAUUGTT against Trpm2 belongs inactive: 0.883.
In the case of GCGACAAAUCGCGCUAUGATT against Grm3 it was inactive: -1.3.
For GCAGUGGUUUGAUCUAUUUTT against Cul5, the z-score was inactive: 0.843.
In the case of GGGAGAGAUGUCAUUGCACTT against Eif4a3, the z-score was inactive: -1.9.
GGAGCCAGUCCAAAUUGCATT against Il13ra1: the z-score was inactive: 0.561.
On to CCAAGAUGGGUUCAUCUCUTT against Cabp5, for which the z-score is active: 2.39.
In the case of GAGCUGGCAAUCUUUCUCUTT against Olfr1156, the z-score is inactive: 0.337.
In the case of GGAUUUCCUGUUCUUUCUATT against Prmt5 it was inactive: 0.168; in that of GGUCCCUAUGUUAUUGAUUTT against Spock2, inactive: 1.11; in that of GGUUGUGUUCAUGGAGAAGTT against Nfatc2, inactive: -1.23.
With CUGCAAACAGAGAGCAGCGTT against Ikbip, the z-score is inactive: 0.0294.
Consider GGUCUCGGGUCUGAUUUAATT against Foxa2, for which the z-score was inactive: 1.95.
In the case of GGAGACAGAAAUGAGUUCATT against Slc34a2 it was inactive: -0.808; in that of CACCGUAAUAAUCACACUATT against Zfp667, inactive: -0.854.
As for GCAACAUGGCCCUUACCAUTT against Plcb2, the z-score was inactive: 0.721.
As for GGUGUUUACAGUUGAGAGUTT against Prmt7, the z-score is inactive: 0.678.
As to GGUCUUCCGGGAGAUCAUUTT against Inmt, the z-score is inactive: 0.471.
Regarding GGUUAUAGAGCGAGCAGCUTT against Mak16, the z-score is inactive: -1.11.
Turning to GCGGGCAAUGCCUUAAAAGTT against Parl, the z-score was inactive: 0.257.
Turning to GGCACUUCUUAAUCCCACATT against Nfe2, the z-score was active: -2.41.
Take GGGUGUAUUGAGAAUCAACTT against Dis3l2: the z-score is inactive: 0.489.
GCUGAUGUCUGAGGGUGUATT against Tex22: the z-score is inactive: 0.58.
Take CCCUAAAUGCUUCGUAUGCTT against Ablim3: the z-score was inactive: -1.2.
Take CCCGGGUCUUUGAUAUCUUTT against Evi5l: the z-score was active: 2.03.
Take GGGAAGUUAAUUGAGAUCCTT against Nomo1: the z-score was inactive: 0.393.
As to GGAUGCUCUGGUUACAUUATT against Mreg, the z-score was inactive: 0.463.
With GGAGACAUUCCUGAAAGCUTT against Ankrd2, the z-score is active: -2.09.
Turning to GCCUAUACUGAUUUAUGAUTT against Tomm7, the z-score is inactive: -1.73.
To AGUUUAGGUCUACAGAUACTT against Ggnbp1 belongs inactive: 0.254; to GGAUUCUUGGAGCUCAUUATT against Stag3, active: -2.46; to GGAAAUGACCAGUCUGUUUTT against Zmym1, inactive: -0.47.
For GGAGAGGCAUCUUUUCCUATT against Arhgap20, the z-score was inactive: -0.338.
With GGAAGUUUAAAGUCUAGAATT against Adcy7, the z-score was inactive: 0.477.
Take GGAAUCUAGACCUAACUUCTT against Zfp444: the z-score was inactive: -0.693.
In the case of GGCAAUAAAGUGUAUUGGCTT against Cd3e it was inactive: -0.644; in that of GGCCUACGUGCUAAACAUCTT against Atp1b1, inactive: 1.77; in that of GGACUUUUCUGAUGAAACATT against Map3k4, inactive: -0.0165.
In the case of GGCAUAUGAUGAUAAGUAATT against P2ry14 it was inactive: 0.691.
With CGAUGAUCCUUACCUCAUATT against Ptcd3, the z-score was inactive: 0.978.
Consider GGUGGUGUCGGAUUUGAUATT against Rtcb, for which the z-score is inactive: -0.109.
As to CUGAUCCUUCAAUUAACAUTT against Olfr202, the z-score was inactive: 0.0318.
As for GGUCAUUAAGGACUCGAAGTT against Gfap, the z-score is inactive: 0.953.
With GGUGUGGUGGGUUUCUCAUTT against Mcpt2, the z-score is inactive: -0.126.
With GGUAUCCUCUCUUGUCUUGTT against Clec9a, the z-score was inactive: -0.0393.
Turning to GGACUUAUGAGCAAAUAAATT against Rprd1a, the z-score was inactive: 0.494.
For GCUUCAGAACACGACGACCTT against Selenom, the z-score was inactive: 1.88.
Turning to CCCUGUGAUCACUACAUGUTT against Traf7, the z-score is inactive: -0.389.
In the case of GGAUGAAUGUCACAACUUCTT against Sema6a it was inactive: 0.658.
In the case of GCCAUGUCUUCCUUCUCCATT against Sprr2g it was inactive: -0.464; in that of GGUUCUACAGAUGGUGUCUTT against Tnfrsf23, inactive: -0.94.
For GGUGUUGGAUGGGAUCCCUTT against Rpl13a, the z-score was inactive: 1.04.
On to GGAAGAAAGAAUCAAGCUGTT against Tnfsf14, for which the z-score is inactive: -0.17.
With GGCAAGACAUCAGCUAGUATT against Pcdhgc5, the z-score was inactive: -0.596.
In the case of GGUGGAUCCUGACAUGUUCTT against Dcaf12l1 it was inactive: -1.55; in that of GCGAUUCUUGAUAAAGAGGTT against Hsfy2, inactive: -1.13.
To GGAACAGAAGUCAAGUGGATT against Acsm5 belongs active: 2.69.
In the case of GCUCUAAGCUUCUAGAUCATT against Csf3 it was inactive: 0.403; in that of CGGGAAAGAGAUCAUCCCUTT against Nr1i2, active: -3.3; in that of GGAACUCCAGCAACUGCCATT against Prl3a1, inactive: 1.95.
For the sequence GGUGAAGAAGAGUCUCAAATT against Mrnip, the z-score was inactive: 1.6.
To CGCCUUGUAUCUUUUACAUTT against Taf1a belongs inactive: -0.0637; to GGACUGAGUCAGAUUUACATT against Foxn2, inactive: -0.622.
As to GCUCCUUUGGCCAUAUUAATT against Dnm2, the z-score was inactive: 0.873.
In the case of GGUUAAAGAAGAUAAUCAGTT against Ift74 it was inactive: 0.723; in that of GGAAAAGCAAAAUCUCCGCTT against Cpne9, inactive: 1.93.
Turning to CGAGCAUUUGAAUCGACUATT against Vti1b, the z-score was inactive: -0.479.
As to GGCUUGUGAAUGGAAAUAATT against Hsp90aa1, the z-score was inactive: -0.416.
In the case of GCUGUCUACCAAAGUGACGTT against Cdh1, the z-score is inactive: -0.151.
Regarding GGAGUUCCAUAGCUGUCAATT against Adra1b, the z-score was inactive: -1.58.
As to GAUGAAAGCUACAAUGAAGTT against Srpx2, the z-score was inactive: 1.67.
For GCCUUCCUAGAGCUCUUUGTT against Olfr792, the z-score is inactive: -0.403.
On to GGAUGAGAAGAAAGAAGAUTT against Srrt, for which the z-score is inactive: -1.36.
Consider GGAAGUGGACCAUUUCUUUTT against Olfr1359, for which the z-score was inactive: 0.719.
As to GGAAUUUUUAGGAAUGGUGTT against Slc35f2, the z-score is inactive: -1.38.
In the case of GCGAUGUCAAUCAAUUCUGTT against Gpr37l1, the z-score was inactive: 0.513.
As to AAAAAGGUGUCACCUUUCUTT against Vmn2r43, the z-score was inactive: 1.32.
Turning to GGAGAUCUUCGAUGACAAUTT against Dvl1, the z-score was inactive: 0.34.
Turning to CCUGAGAUCAAGAACGACATT against Crat, the z-score is inactive: 0.899.
Turning to GGUUUCGGAUAAAGCCAAUTT against Wif1, the z-score was inactive: 0.917.
Consider GGGACAAUGUACAUCUACUTT against Dnaaf6b, for which the z-score is inactive: -0.199.
As for CCCUUCUCUGAGACAACACTT against Tcirg1, the z-score was inactive: 1.42.
As to GCAUCCUAGAGGAUCAAUCTT against Smarcb1, the z-score was inactive: -1.25.
As for GGGAGUUGAGAAGACAUAATT against Lim2, the z-score was inactive: 0.223.
On to GCAGGGAUUUUAACCAAUATT against Inf2, for which the z-score is inactive: 1.41.
Turning to GCGGGAGAAGCUAAUGAAATT against Ndufs5, the z-score is active: 2.21.
Consider GGAACCUUAGUGGAGGAUATT against Icos, for which the z-score is inactive: 0.712.
GCAACUUAAUACUAGGUGATT against Acad11: the z-score is inactive: -1.21.
Consider GGCCUGGAAACGUAUUUACTT against Snx24, for which the z-score is inactive: 0.717.
To “GGCACUCAGGCUUAAUCAUTT against 9530003J23Rik” belongs inactive: -0.88.
